Assay results reported in patent US6576261B1, “Potentiation of inclusion complex formation of cyclodextrin derivatives” (priority 1999, dated 2003).

Assay: Formation and stabilization of colloidal copper by cyclodextrin derivatives
Assay type: physicochemical
Conditions: cyclodextrin derivative 5%; for Copper in Active Form (%): after exposure to air at room temperature, from absorbance at 570 nm; for Absorbance at 420 nm: colloidal copper after hydrazine hydrate and 25 minutes ultrasound bath

Compound	Copper in Active Form (%)	Absorbance at 420 nm
COC[C@H]1O[C@@H]2O[C@H]3[C@H](O)[C@@H](OC)[C@@H](O[C@H]4[C@H](O)[C@@H](OC)[C@@H](O[C@H]5[C@H](O)[C@@H](OC)[C@@H](O[C@H]6[C@H](O)[C@@H](OC)[C@@H](O[C@H]7[C@H](O)[C@@H](OC)[C@@H](O[C@H]8[C@H](O)[C@@H](OC)[C@@H](O[C@H]1[C@H](O)[C@H]2OC)O[C@@H]8COC)O[C@@H]7COC)O[C@@H]6COC)O[C@@H]5COC)O[C@@H]4COC)O[C@@H]3COC [DIMEB]	100%	.110
OCC1OC(OC2C(CO)OC(OCC3OC4OC5C(CO)OC(OC6C(CO)OC(OC7C(CO)OC(OC8C(CO)OC(OC9C(CO)OC(OC%10C(CO)OC(OC3C(O)C4O)C(O)C%10O)C(O)C9O)C(O)C8O)C(O)C7O)C(O)C6O)C(O)C5O)C(O)C2O)C(O)C(O)C1O (stereo not drawn) [G2]	less than 100%*	.437
COC[C@H]1O[C@@H]2O[C@@H]3[C@@H](OC)[C@@H](OC)[C@@H](O[C@@H]4[C@@H](OC)[C@@H](OC)[C@@H](O[C@@H]5[C@@H](OC)[C@@H](OC)[C@@H](O[C@@H]6[C@@H](OC)[C@@H](OC)[C@@H](O[C@@H]7[C@@H](OC)[C@@H](OC)[C@@H](O[C@@H]1[C@@H](OC)[C@H]2OC)O[C@@H]7COC)O[C@@H]6COC)O[C@@H]5COC)O[C@@H]4COC)O[C@@H]3COC [TRIMEA]	100%	.520

Marks after values point to notes of the source that are not given here.
